PubChem BioAssay AID1259308 | NCATS, 2017
Assay: 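Candidate targets for better recombinant protein yield in mammalian cells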 (primary screen). System: human HEK293 embryonic kidney cells stably expressing firefly luciferase (HEK-CMV-Luc2-Hygro). Reagents: single siRNA against human genes, 0.8 pmol siRNA per well. Timing: 72 h. Detection: 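Reporter luminescence and viable-cell signal on separate replicate plates, given as percent of non-targeting control and median/MAD z-scores, plus per-cell luciferase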. Direction: total luciferase, z-score and total luciferase, % of control: higher = more reporter protein produced; luciferase per cell, z-score: higher = more reporter output per viable cell; viable cells, % of control: higher = more viable cells. Hit rule: 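Active when the median/MAD z-score for overall luciferase is greater than 3; a gene was taken forward for validation with new siRNAs if at least two of its three siRNAs passed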. Meaning of the calls: active = raised luciferase; inactive = no rise.
The deposit covers about 59,000 reagents; below is a part drawn at random. About 1,510 of them (2.6%) count as active. 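Calls use total luciferase alone and ignore viability, so some active siRNAs may act by altering cell number.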 The numbers tell different reagents against one gene apart.

no.	target	reagent no.	total luciferase, z-score	total luciferase, % of control	luciferase per cell, z-score	viable cells, % of control	Call
1	ZNF71	1	2.35	129	2.04	84	inactive
2	ZNF71	2	-1.45	53	-1.35	84.3	inactive
3	ZNF71	3	-0.221	77.5	-0.0353	87.4	inactive
4	TOGARAM2	1	-0.256	76.8	-0.796	106	inactive
5	TOGARAM2	2	-0.171	78.5	-0.375	96.8	inactive
6	TOGARAM2	3	-0.739	67.2	-0.129	77.7	inactive
7	ESRP1	1	-1.18	58.4	-0.828	81.2	inactive
8	ESRP1	2	0.506	91.9	0.203	97.4	inactive
9	ESRP1	3	-1.98	42.4	-1.47	69.9	inactive
10	FAM186A	1	-0.644	69.1	-0.577	89.9	inactive
11	FAM186A	2	-1.32	55.6	-1.07	82.4	inactive
12	FAM186A	3	0.878	99.4	0.813	89.6	inactive
13	ZFAND4	1	0.603	93.9	0.932	82.1	inactive
14	ZFAND4	2	-1.46	52.9	-0.689	70.9	inactive
15	ZFAND4	3	-0.196	78	0.0806	85.3	inactive
16	PTGDR	1	-1.34	55.2	0.0808	60.4	inactive
17	PTGDR	2	-0.77	66.6	-0.145	77.3	inactive
18	PTGDR	3	-0.479	72.4	-0.527	92.9	inactive
19	APOL6	1	-1.44	53.3	-1.24	82.5	inactive
20	APOL6	2	2.75	137	1.72	97	inactive
21	APOL6	3	-0.882	64.3	-0.99	93.3	inactive
22	LBR	1	1.07	103	2	68.2	inactive
23	LBR	2	1.53	112	1.28	89.7	inactive
24	LBR	3	0.576	93.3	-0.424	117	inactive
25	MTA2	1	0.405	89.9	0.593	86	inactive
26	MTA2	2	0.133	84.5	-0.643	112	inactive
27	MTA2	3	1.88	119	0.897	105	inactive
28	HGS	1	-0.48	72.3	-0.179	84.8	inactive
29	HGS	2	-0.206	77.8	-0.0628	88.4	inactive
30	HGS	3	0.138	84.6	0.301	87.4	inactive
31	LOC441052	1	0.87	99.2	0.582	95.1	inactive
32	LOC441052	2	0	81.9	-0.416	102	inactive
33	LOC441052	3	0.0562	83	-0.302	100	inactive
34	MARS1	1	0.0652	83.2	-0.0122	93.3	inactive
35	MARS1	2	1.83	118	1.98	78.6	inactive
36	MARS1	3	0.19	85.7	1.17	70.4	inactive
37	ABI3	1	-0.393	74.1	-0.122	85.5	inactive
38	ABI3	2	0.122	84.3	0.392	85	inactive
39	ABI3	3	-0.857	64.8	-0.072	73.8	inactive
40	PLD3	1	-0.956	62.9	0.133	67.8	inactive
41	PLD3	2	-1.23	57.3	-0.132	66.3	inactive
42	PLD3	3	0.174	85.3	-0.254	102	inactive
43	GRHL1	1	0.67	95.2	0.387	96.1	inactive
44	GRHL1	2	1.04	102	0.891	90.6	inactive
45	GRHL1	3	1.2	106	2.33	63.9	inactive
46	KDM3B	1	1.64	115	0.637	108	inactive
47	KDM3B	2	-0.348	75	-0.604	98.2	inactive
48	KDM3B	3	-0.599	70	-0.713	94.3	inactive
49	THAP2	1	-0.443	73.1	-1.01	107	inactive
50	THAP2	2	1.7	116	1.74	81.7	inactive
51	THAP2	3	-0.213	77.6	0.718	71.8	inactive
52	CORO1C	1	1.63	114	1.19	93.3	inactive
53	CORO1C	2	0.751	96.8	-0.0341	109	inactive
54	CORO1C	3	0.415	90.1	-0.581	117	inactive
55	NAT2	1	-0.452	72.9	-0.853	102	inactive
56	NAT2	2	0.114	84.2	0.217	88.8	inactive
57	NAT2	3	-0.624	69.5	-1.35	111	inactive
58	GCC2	1	-0.212	77.7	0.961	67.4	inactive
59	GCC2	2	-0.349	74.9	-0.224	88.8	inactive
60	GCC2	3	0.739	96.6	1.26	77.4	inactive
61	ATP5IF1	1	-0.0446	81	-0.46	102	inactive
62	ATP5IF1	2	-0.188	78.1	-0.476	99	inactive
63	ATP5IF1	3	0.103	83.9	-0.141	97.3	inactive
64	LINC01750	1	0.426	90.4	0.174	96.5	inactive
65	LINC01750	2	-0.936	63.3	-0.767	86.5	inactive
66	LINC01750	3	0.197	85.8	-0.0981	98.4	inactive
67	PSMD13	1	2.03	122	1.66	88.4	inactive
68	PSMD13	2	0.718	96.2	1.28	76.7	inactive
69	PSMD13	3	1.12	104	1.45	79.5	inactive
70	TRMT61B	1	-1.08	60.5	-1.12	90.8	inactive
71	TRMT61B	2	-0.792	66.1	-0.47	83.6	inactive
72	TRMT61B	3	-0.084	80.2	-0.872	113	inactive
73	APOE	1	0.142	84.7	-0.576	110	inactive
74	APOE	2	-1.18	58.3	-1.26	90.8	inactive
75	APOE	3	0.449	90.8	-0.763	124	inactive

4 entries from above in another layout:
{"target": "GRHL1", "reagent no.": 2, "total luciferase, z-score": 1.04, "total luciferase, % of control": 102, "luciferase per cell, z-score": 0.891, "viable cells, % of control": 90.6, "Call": "inactive"}
{"target": "GRHL1", "reagent no.": 3, "total luciferase, z-score": 1.2, "total luciferase, % of control": 106, "luciferase per cell, z-score": 2.33, "viable cells, % of control": 63.9, "Call": "inactive"}
{"target": "KDM3B", "reagent no.": 1, "total luciferase, z-score": 1.64, "total luciferase, % of control": 115, "luciferase per cell, z-score": 0.637, "viable cells, % of control": 108, "Call": "inactive"}
{"target": "KDM3B", "reagent no.": 2, "total luciferase, z-score": -0.348, "total luciferase, % of control": 75, "luciferase per cell, z-score": -0.604, "viable cells, % of control": 98.2, "Call": "inactive"}
